According to PubChem BioAssay AID1347076 (National Center for Advancing Translational Sciences (NCATS), 2019):
The campaign covered roughly 400,000 compounds. About 13,000 (3.2%) were called active. This list was built around the results that the source calls inconclusive (neither active nor inactive); the mix of calls is not that of the screen. The call rests on the fitted dose curve; in most records, active means well fitted cell-killing curve with a large enough effect; inconclusive means small, poorly fitted or top-dose-only effect, or effect the other way; inactive means flat fitted curve, though single readings scatter. Potencies of inconclusive entries are doubtful fits and often do not repeat.
On the % scale 0 is the no-effect control and ±100 the full control effect; potency means the concentration at half of the fitted maximal effect.

Test: qHTS assay for MDR1-selective chemotherapeutics: Primary screen using the drug-selected MDR subline cells KB-V1; further: nearly all actives have a fitted effect of over 60% in size
Settings: KB-V1 MDR cells viability, CellTiter-Glo, 72 h; activity change, negative = cytotoxicity: at 46.1 µM (top of the series)
How it was run: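 Following 72 h at 37 degrees C with compound, KB-V1 cell viability was read by CellTiter-Glo luminescence, medium being phenol-red-free DMEM plus 10% FBS; concentration-response parameters came from normalized, curve-fitted qHTS data.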
For `CC(=O)N/C(=C/C(C)C)c1ccccc1`, the Potency was “inactive”.
For `COc1cccc(NC(=O)c2ccccc2OCc2c(C)noc2C)c1`, the Potency was inconclusive: 6.51 µM [cytotoxic, partial curve].
For `O=C(C[n+]1cccc(NC(=O)c2ccccc2)c1)c1ccc(NC(=O)c2ccccc2)cc1`, the Potency was “inactive”.
In the case of `CC1=C(C(=O)Nc2cccnc2)C(c2ccc(F)cc2)n2nc(SCc3ccccc3)nc2N1` (stereo not given), the Potency is reported as inconclusive: 29.1 µM [rising, single point].
With `Cc1ccc(NC(=S)N(CCN(C)C)Cc2cccs2)cc1C` the Potency was inconclusive: 7.31 µM [cytotoxic, partial curve].
For `COc1ccc(C2(O)CCN(CC(=O)Nc3nc(-c4ccccc4)cs3)CC2)cc1`, the Potency was inconclusive: 20.6 µM [cytotoxic, single point].
In the case of `CCC(NC(=S)NCc1ccc(F)cc1)c1ccc(C(C)C)cc1` (stereo not given), the Potency is reported as inconclusive: 29.1 µM [cytotoxic, single point].
For `Cc1nc2ccc(NC(=S)N3CCOCC3)cc2nc1C`, the Potency was “inactive”.
In the case of `CCN(CC(=O)Nc1c(F)cccc1F)C(=O)c1ccccn1`, the Potency is reported as inconclusive: 29.1 µM [rising, single point].
For `CCc1c(C)nc2ncnn2c1N1CCCC(C(=O)NCc2cccs2)C1` (stereo not given), the Potency was active: 16.4 µM.
For `CC1=C(C(=O)N2CCOCC2)CC(CC(=O)NCCCCc2ccccc2)C(=O)N1CCC1=CCCCC1` (stereo not given), the Potency was inconclusive: 9.2 µM [cytotoxic, partial curve].
For `COc1cc(NS(=O)(=O)c2ccc(C)c(C)c2)c(OC)cc1Cl`, the Potency was active: 18.4 µM.
For `COc1ccc(N2CCOCC2)c(NC(=O)COc2cccc(C)c2C)c1`, the Potency was inconclusive: 7.31 µM [cytotoxic, partial curve, poor fit].
In the case of `COc1cc(CNc2ccc(CNc3ncn[nH]3)cc2)cc(Cl)c1OCc1ccccc1`, the Potency is reported as inconclusive: 8.2 µM [cytotoxic, partial curve].
In the case of `O=C(CNc1ccc2c(c1)OCO2)N/N=C\c1cn(Cc2ccccc2)c2ccccc12`, the Potency is reported as inconclusive: 29.1 µM [cytotoxic, single point].
With `CC1(C)Cc2ccccc2C(NNC(=O)c2ccccc2)=N1` the Potency was inconclusive: 10.3 µM [cytotoxic, partial curve].
In the case of `COc1ccc(C(=O)NNC(=O)CSc2nnc(C)n2C)cc1`, the Potency is reported as “inactive”.
With `O=C(c1ccc(Cl)cc1)c1ccc(OCC(=O)N2CCOCC2)cc1` the Potency was active: 18.4 µM.
For `CCOc1ccc(N=Nc2c(=O)[nH]n3c(=O)cc(C)[nH]c23)cc1`, the Potency was inconclusive: 16.4 µM [cytotoxic, single point].
For `CCC1COCCS(=O)(=O)N1Cc1cccc(Cl)c1` (stereo not given), the Potency was inconclusive: 23.1 µM [cytotoxic, partial curve, poor fit].
For `CC(C)N1CCC(N2CCN(CCCc3ccccc3)CC2CCO)CC1` (stereo not given), the activity change, negative = cytotoxicity was inconclusive: 5.61%.
With `COC(=O)[C@@]12CCCCN1[C@H](c1ccc(-c3ccccc3)c(OC)c1)[C@H]1C(=O)N(C)C(=O)[C@H]12` the Potency was “inactive”.
With `CCn1c(N2CCN(Cc3ccc([N+](=O)[O-])cc3)CC2)nc2ccccc21` the Potency was inconclusive: 29.1 µM [cytotoxic, single point].
With `CN(Cc1ccc(Cl)cc1)C(=O)CCl` the Potency was inconclusive: 29.1 µM [cytotoxic, single point].
With `COc1cccc(C(C(=O)NC(C)(C)C)N(Cc2ccc(F)cc2)C(=O)CCC(=O)Nc2cc(C)on2)c1OC` (stereo not given) the Potency was inconclusive: 3.26 µM [cytotoxic, partial curve, poor fit].
For `O=C(N/N=C/C(Br)=C\c1ccccc1)c1ccco1`, the Potency was inconclusive: 25.9 µM [rising, single point].
In the case of `Cc1ccc(C(=O)COC(=O)CN2C(=O)C3C4C=CC(C4)C3C2=O)cc1[N+](=O)[O-]` (stereo not given), the Potency is reported as “inactive”.
With `Cc1ccccc1-c1ccc2c(c1)O[C@H](CN(C)C(=O)C1CC1)[C@@H](C)CN([C@@H](C)CO)S2(=O)=O` the Potency was inconclusive: 29.1 µM [cytotoxic, single point].
For `COc1cccc(C(=O)Nc2cc3c(cc2Cl)OCCCO3)c1`, the Potency was active: 23.1 µM.
With `CS(=O)(=O)N(CC(=O)Nc1cc(Cl)ccc1Cl)c1ccccc1` the Potency was active: 16.4 µM.
With `COc1ccc(CNC(=O)CN2CCC(C(=O)c3ccc(OC)cc3)CC2)cc1` the Potency was inconclusive: 8.2 µM [cytotoxic, partial curve].
In the case of `CC(=O)c1ccc(OCc2ccc(C(=O)c3ccccc3)cc2)cc1`, the Potency is reported as active: 16.4 µM.
For `COc1cc(CNc2ccc(C)c(C)c2)cc(OC)c1OC`, the Potency was inconclusive: 2.91 µM [cytotoxic, full curve, poor fit].
For `CC1CCN(C(c2cccs2)c2nnnn2Cc2ccccc2)CC1` (stereo not given), the Potency was active: 14.6 µM.
With `CC(=O)c1cccc(NC(=O)CN(C)Cc2ccc(OC(F)F)cc2)c1` the Potency was inconclusive: 29.1 µM [cytotoxic, single point].
With `CN1c2ccccc2-c2nc(SCC(=O)Nc3ccccc3)ncc2S1(=O)=O` the Potency was inconclusive: 0.58 µM [cytotoxic, full curve, poor fit].
For `CCOc1ccc(CC(=O)NCC(=O)NCc2cc(=O)n(C)c(=O)n2C)cc1`, the Potency was inconclusive: 29.1 µM [rising, single point].
In the case of `Cc1ccc(NS(=O)(=O)c2cc3c4c(c2)CC(=O)N4CCC3)cc1C`, the Potency is reported as “inactive”.
With `c1ccc(N2CCN(c3ncnc4c3nc3n4CCCCC3)CC2)cc1` the Potency was inconclusive: 5.8 µM [cytotoxic, full curve, poor fit].
In the case of `O=C(NC(=S)Nc1ccc(S(=O)(=O)N2CCCCC2)cc1)c1cccs1`, the Potency is reported as active: 3.26 µM.
In the case of `COc1ccc(S(=O)(=O)N2CCN(C(=O)C3CC3)CC2)cc1Br`, the Potency is reported as “inactive”.
In the case of `COC(=O)C1CCN(c2csc3ccc(C)cc3c2=O)CC1`, the Potency is reported as inconclusive: 29.1 µM [rising, single point].
For `COc1ccc(C(=O)N2CCN(S(=O)(=O)c3ccc(F)cc3)CC2)cc1OC`, the Potency was inconclusive: 0.411 µM [rising, full curve, poor fit].
With `NC(=O)c1ccccc1NC(=O)CSc1nc2c(c(=O)[nH]1)CCCC2` the Potency was “inactive”.
For `COc1ccc(/C=C/C(=O)NC(=S)NNC(=O)c2cc(OC)c(OC)c(OC)c2)cc1`, the Potency was inconclusive: 5.8 µM [cytotoxic, full curve].
